Results from PMC11066871 (Journal of the American Chemical Society, 2024).

Experiments:
[1] = general procedure: Fmoc solid-phase peptide synthesis; Trt-TentaGel (C-terminal acids), Rink Amide (C-terminal amides), Fmoc-Tyr-hydrazide Trt resin (hydrazides); HATU, DiPEA (PEG spacer coupling); settings: for isolated mass / isolated yield: whole synthesis; for step yield: coupling step, on MPA thioester used for NCL, over three steps
[2] = general procedure: Fmoc solid-phase peptide synthesis; Rink Amide; HATU, DiPEA (PEG spacer coupling); settings: whole synthesis
[3] = scale of the general procedure 10 μmol (optimization tests 25 μmol)

Ac-YSP TSPpS-YSP TSPpS-YSP TS PpS-YSPTSPpS-YSP TSPpS-YSPTSPpS-NH2
isolated mass [1]: 1.23 µmol
isolated yield [1, 3]: 12%

Ac-YSPpTSP S-YSPpTSP S-YSPpTSPS-YSPpTSP S-YSPpTSPS-YSPpTSPS-NH2 [3]
isolated mass [1]: 0.88 µmol
isolated yield [1, 3]: 9%

Ac-YpSPTSPS-YpSPTSPS-YpSP TSPS -YpSPTSPS-YpSP TSPS -YpSPTSPS-NH2
isolated mass ([1]; scale 10 µmol): 0.88 µmol
isolated yield ([1]; scale 10 µmol): 9%

H6-NH-(CH2)2-PEG6-CO-(YSPTSPS)6-YAPTSPS-(YSPTSPS)4-YpSPTSPS
step yield [1]: 50%

H6-NH-(CH2)2-PEG6-CO-(YSPTSPS)6-YAPTSPS-YpSPTSPS-(YSPTSPS)4
step yield [1]: 10%

H6-NH-(CH2)2-PEG6-CO-YSPTSPS-YpSPTSPS-(YSPTSPS)4-YAPTSPS-(YSPTSPS)2-YpSPTSPS-(YSPTSPS)2
step yield [1]: 26%

H6-NH-(CH2)2-PEG6-CO-YSPTSPS-YpSPTSPS-(YSPTSPS)4-YAPTSPS-(YSPTSPS)4-YpSPTSPS
step yield [1]: 16%

H6-NH-(CH2)2-PEG6-CO-YSPTSPS-YpSPTSPS-(YSPTSPS)4-YAPTSPS-(YSPTSPS)-YpSPTSPS-(YSPTSPS)3
step yield [1]: 18%

H6-NH-(CH2)2-PEG6-CO-YSPTSPS-YpSPTSPS-(YSPTSPS)4-YAPTSPS-YpSPTSPS-(YSPTSPS)4
step yield [1]: 33%

HHHHHH- PEG6-YpSP TSPS -YpSPTSPS-YpSPTSPS-YpSP TSPS -YpSPTSP S-YpSP TSPS -NH2
isolated mass [1]: 0.79 µmol
isolated yield [1, 3]: 16%

YSP TSPpS-YpSPTSPS-NH2
isolated mass [2]: 2.7 3 μmol
isolated yield ([1]; on theoretical full scale of the synthesis, scale of the general procedure 10 μmol (optimization tests 25 μmol)): 27%
